Test results taken from PubChem BioAssay AID504467 (National Center for Advancing Translational Sciences (NCATS), 2011).
Screen size: about 330,000 compounds; about 7,700 (2.3%) were called active. The inconclusive results got no clear call from the source; some entries with a clear call stand among them for comparison. Calls follow the shape of the dose curve; as a rule, active = well fitted inhibition curve with a large enough effect; inconclusive = small, poorly fitted or top-dose-only effect, or effect the other way; inactive = flat fitted curve, though single readings scatter. Potencies beside an inconclusive call are fits to weak or partial responses and may not hold up.

assay: qHTS screen for small molecules that inhibit ELG1-dependent DNA repair in human embryonic kidney (HEK293T) cells expressing luciferase-tagged ELG1; details: HEK293T ELG1-luciferase reporter, luminescence, 16 h, DNA damage induced by 5-fluorouridine; activity change, negative = inhibition: at 46.1 µM (top of the series); also: nearly all actives have a fitted effect of over 55% in size
In short: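 Reporter activity after DNA damage by 5-fluorouridine is monitored. Compound-treated cells incubate 16 hr at 37 °C, then ONE-Glo is added for 30 min before luminescence reading.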
% is scaled to controls: 0 for no effect and ±100 for the full control effect; potency is read from the fitted curve at half-maximal effect.

Compound | activity change, negative = inhibition | Potency
NC(=O)C(=O)N/N=C/c1cccc(C(F)(F)F)c1 | inactive: 2.91% | –
Cn1c(=O)c2sccc2n2c(CCCC(=O)NCc3ccc(F)cc3)nnc12 | inactive: -2.4% | –
Cc1nn(C)cc1/C=N/NC(=O)Cn1cncn1 | inactive: 22.4% | –
COc1ccc(C2CC(=O)Oc3c(C(CCN4CCCC(C)C4)c4ccc(N(C)C)cc4)c(OC)cc(OC)c32)cc1 (stereo not drawn) | inactive: 14.2% | –
Cc1cc(C)c(C)c(C(=O)CSc2nnc(-c3ccc4[nH]c(C)c(C)c4c3)o2)c1C | – | active: 16.4 µM
Cc1ccccc1N(C(=O)c1snc(C(N)=O)c1N)C(C(=O)NCc1ccccc1)c1ccc(O)cc1 (stereo not drawn) | – | inconclusive: 32.6 µM [inhibitor, single point]
CCOC(=O)C1=C(CSc2nc3ccccc3s2)NC(=O)NC1c1cccc([N+](=O)[O-])c1 (stereo not drawn) | inactive: -0.57% | –
O=C(NCc1ccco1)c1ccc2c(c1)OCCO2 | – | inconclusive: 16.4 µM [activator, partial curve]
CC1(C)NC(=O)N(CCCCOc2ccc3ccccc3c2Cl)C1=O | – | inconclusive: 18.4 µM [activator, partial curve]
Nc1c(Br)cc2oc(-c3ccccc3)nc2c1Br | – | inconclusive: 6.51 µM [activator, partial curve]
O=C(NCCc1ccccc1)c1cnc(Cl)c(Cl)c1 | – | inconclusive: 11.6 µM [activator, partial curve]
CCC1=C(OC(=O)N(CC)CC)N2C(=O)OC(=NCC3CC3)[C@]2(Cc2ccccc2)[C@H]2C1=CC[C@H]1C(=O)N(c3ccccc3)C(=O)[C@H]12 | – | inconclusive: 9.2 µM [inhibitor, partial curve, poor fit]
CCOC(=O)CN1C(=O)S/C(=C\c2ccc3c(c2)OCO3)C1=O | inactive: 25.1% | –
CC(=O)N1N=C2/C(=C/c3ccccc3)CCCC2C1c1ccccc1 (stereo not drawn) | – | inconclusive: 20.6 µM [activator, partial curve]
CC1Sc2ccc(S(=O)(=O)N3CCC(C(=O)Nc4ccc(Cl)cc4)CC3)cc2NC1=O (stereo not drawn) | – | active: 4.61 µM
CC1Cc2nc(SCC(=O)NCc3ccco3)n(Cc3ccccc3)c(=O)c2S1 (stereo not drawn) | – | inconclusive: 20.6 µM [activator, single point]
CC(=O)NC(Cc1cc(C)ccc1C)C(=O)N1CCN(C(=O)Nc2ccc(C(C)=O)cc2)CC1 (stereo not drawn) | – | inconclusive: 20.6 µM [activator, partial curve]
COc1cc2c(cc1NC(=O)c1cncc(Br)c1)oc1ccccc12 | inactive: 6.31% | –
Clc1ccc(C2=Nn3c(nnc3-c3cc(-c4ccccc4)n[nH]3)SC2)cc1 | – | inconclusive: 18.4 µM [inhibitor, single point]
O=C(NC(=S)N(CCO)Cc1ccccc1)c1ccc(S(=O)(=O)N2CCCC2)cc1 | inactive: -7.81% | –
Cc1cc(OCC(=O)Nc2cccnc2)c2c(C)cc(=O)oc2c1 | inactive: 15.4% | –
O=c1[nH]c(-c2cccs2)nc2ccccc12 | – | inconclusive: 23.1 µM [activator, partial curve, poor fit]
O=C(c1nc2ccccc2s1)N1CCN(c2ccccn2)CC1 | – | inconclusive: 23.1 µM [activator, partial curve, poor fit]

Compound | activity change, negative = inhibition | Potency
Cc1nc2ccccc2c(=O)n1/N=C/c1c(O)ccc2oc3c(c12)CCCC3 | – | inconclusive: 20.6 µM [inhibitor, partial curve, poor fit]
COc1ccccc1C1CCCN1Cc1nc(-c2ccc(C)s2)oc1C (stereo not drawn) | – | inconclusive: 8.2 µM [activator, partial curve]
Cc1nc(-c2ccccn2)sc1C(=O)Nc1ccc(F)cc1F | – | inconclusive: 23.1 µM [activator, partial curve]
Cc1ccccc1OCC(=O)Nc1nnc(-c2ccncc2)s1 | – | inconclusive: 29.1 µM [inhibitor, single point]
CCC(=O)N(Cc1ccco1)c1nc(-c2ccc(OC)cc2)cs1 | – | inconclusive: 6.51 µM [inhibitor, single point]
COc1cccc(-c2ncc3ccccc3c2CO)c1 | – | inconclusive: 14.6 µM [activator, single point]
Cc1nc(C)c(-c2csc(Nc3ccc(C(=O)O)c(O)c3)n2)s1 | inactive: -0.288% | –
CCC/C(C#CCCN1C(=O)c2ccccc2C1=O)=C1/c2ccccc2C(=O)N1c1ccccc1 | – | inconclusive: 18.3 µM [inhibitor, partial curve]
COc1ccc(/C=N/NC(=O)CC#N)cc1Oc1nc(Cl)ncc1F | inactive: 19% | –
O=c1c2c3nc4ccccc4nc3n(-c3ccc4c(c3)OCCO4)c2ncn1CC1CCCO1 (stereo not drawn) | inactive: -10.5% | –
O=[N+]([O-])c1ccc(Cl)c(S(=O)(=O)Nc2cccc(-c3ccc(N4CCCC4)nn3)c2)c1 | – | inconclusive: 10.3 µM [activator, single point]
O=C(CCCn1c(SCc2cc(=O)n3cc(Cl)ccc3n2)nc2ccccc2c1=O)NCC1CCCO1 (stereo not drawn) | – | inconclusive: 20.6 µM [inhibitor, single point]
COC(=O)C1=CN(Cc2ccccc2)C=C(C(=O)OC)C1c1ccc(O)c(OC)c1 | – | inconclusive: 16.4 µM [inhibitor, single point]
Cn1nc(C(=O)Nc2ccc3c(c2)OCCO3)cc1C(=O)O | – | inconclusive: 18.3 µM [activator, single point]
CS(=O)(=O)N1CCN(C(=O)Cc2ccc(Br)cc2)CC1 | inactive: -1.41% | –
COC(=O)c1ccccc1C(=O)N1CCC(CCC(=O)NC2CC2)CC1 | – | inconclusive: 29.1 µM [activator, partial curve, poor fit]
NC(=O)CNC(=O)C1CCN(S(=O)(=O)c2ccc(-n3cnnn3)cc2)CC1 | inactive: 18.1% | –
Cn1cc(Br)c(C(=O)NNC(=O)c2ccc(Cl)cc2)n1 | – | inconclusive: 18.4 µM [activator, partial curve]
O=S(=O)(c1ccccc1Br)N(CC(O)COCc1ccccc1)C1CC1 (stereo not drawn) | inactive: -23.5% | –
CC(C)(CNC(=O)c1ccc(Cl)c(S(=O)(=O)N2CCc3ccccc3C2)c1)N1CCOCC1 | – | active: 1.83 µM
CCOc1ccc(/C=C/C(=O)NCc2ccccc2)cc1 | – | inconclusive: 29.1 µM [activator, single point]
CCN(CC)CC(=O)Nc1scc2c1c(=O)oc1ccccc12 | – | inconclusive: 9.2 µM [activator, partial curve]
Cc1ccc(-n2c([S-])c(C(=O)Nc3ccc(OC(F)F)cc3)[n+]3ccc(C(=O)NCCO)cc23)cc1C | – | inconclusive: 29.1 µM [activator, single point]

Random excerpt: 2 compounds from above
Compound | activity change, negative = inhibition | Potency
Cc1nc(-c2ccccn2)sc1C(=O)Nc1ccc(F)cc1F | – | inconclusive: 23.1 µM [activator, partial curve]
COc1cccc(-c2ncc3ccccc3c2CO)c1 | – | inconclusive: 14.6 µM [activator, single point]

Additional records

Compound | activity change, negative = inhibition | Potency
CCc1nc2ccccc2c(C(=O)OCC(=O)N(CC(C)C)c2c(N)n(Cc3ccccc3)c(=O)[nH]c2=O)c1C | – | inconclusive: 8.2 µM [inhibitor, single point]
CCn1nc(C)c(/C=N\NC(=O)c2ccc3c(c2)OCO3)c1C | – | inconclusive: 16.4 µM [activator, single point]
O=C(NCc1ccccc1)c1ccc(-c2ccccc2C(F)(F)F)o1 | – | inconclusive: 18.4 µM [activator, partial curve, poor fit]
O=C(N/N=C/c1ccc2cccnc2c1)c1ccco1 | – | inconclusive: 2.59 µM [activator, full curve]
CC(=O)c1cccc(NC(=O)N2CCCC2C(=O)NCc2ccc3c(c2)OCO3)c1 (stereo not drawn) | – | inconclusive: 4.11 µM [inhibitor, full curve]
Cc1ccc2nc(NCc3ccc(F)cc3)c3nncn3c2c1 | inactive: -7.34% | –
CCC(CC)c1nnc(NC(=O)c2nc3nc(C)cc(C)n3n2)s1 | inactive: 0.846% | –
COc1ccc(NC(=O)c2cc(C(C)C)on2)c(OC)c1 | – | inconclusive: 2.31 µM [activator, full curve]
O=C(Nc1ccc(O)cc1)c1cccc(Oc2ccc([N+](=O)[O-])cc2)c1 | inactive: -3.98% | –
COc1cc(/C=C(\C#N)C(=O)Nc2cccc(C(=O)O)c2)ccc1OCc1ccc(F)cc1 | – | inconclusive: 14.6 µM [activator, partial curve]
O=C(OCC1OC(n2ccc(=O)[nH]c2=O)C(O)C1OC(=O)c1ccccc1)c1ccccc1 (stereo not drawn) | – | inconclusive: 6.51 µM [inhibitor, partial curve]
Cc1noc(C)c1C(=O)N1CCN(CCc2ccccc2)CC1 | – | inconclusive: 11.2 µM [activator, partial curve, poor fit]
O=C(NNC(=O)c1csc(-c2cnccc2C(F)(F)F)n1)c1ccc(C(F)(F)F)cc1 | – | inconclusive: 23.1 µM [inhibitor, single point]
Cc1cc(NC(=O)CSc2nc3c(C)c(C)ccc3cc2C)no1 | inactive: -8.4% | –
CCC(=O)NC(=S)Nc1ccc(-c2nc3ccccc3s2)cc1 | – | inconclusive: 0.651 µM [activator, full curve]
NC(=O)c1cc(S(=O)(=O)N2CCCC2)ccc1OCCOc1ccccc1 | inactive: -26.8% | –
COc1ccc(CCNC(=O)c2cc3c(=O)n(C)c4ccccc4c3n2C)cc1OC | – | inconclusive: 20.6 µM [inhibitor, single point]
CCOC(=O)c1ccc(N2C(=O)C3C(C2=O)C(C(=O)c2ccc(Cl)cc2)N2CCCC32)cc1 (stereo not drawn) | inactive: 0% | –
CC(=O)Nc1cccc(/C(C)=N/NC(=O)c2c(-c3ccccc3Cl)noc2C)c1 | – | inconclusive: 23.1 µM [inhibitor, partial curve, poor fit]
CSc1ccccc1NC(=O)COc1ccc(S(=O)(=O)N2CCCC2)cc1 | inactive: 6.99% | –
CCOC(=O)c1c(C)n(C)c2ccc(OCC(O)Cn3c(C)nc4ccccc43)cc12 (stereo not drawn) | – | active: 11.6 µM
COc1ccc(CN(C(=O)c2oc3ccccc3c2C)C2CCS(=O)(=O)C2)cc1OC (stereo not drawn) | – | inconclusive: 20.6 µM [inhibitor, single point]

In another format: entries from further up.
Compound,"activity change, negative = inhibition",Potency
Cc1ccc2nc(NCc3ccc(F)cc3)c3nncn3c2c1,inactive: -7.34%,–
COc1cc(/C=C(\C#N)C(=O)Nc2cccc(C(=O)O)c2)ccc1OCc1ccc(F)cc1,–,"inconclusive: 14.6 µM [activator, partial curve]"
O=C(OCC1OC(n2ccc(=O)[nH]c2=O)C(O)C1OC(=O)c1ccccc1)c1ccccc1 (stereo not drawn),–,"inconclusive: 6.51 µM [inhibitor, partial curve]"
